Experimental findings from article PMC11873932 are described below.

By UniProt entry, the sequences of proteins in these tests, tags left out. Residues count along the entry.
UniProt A6NIH7: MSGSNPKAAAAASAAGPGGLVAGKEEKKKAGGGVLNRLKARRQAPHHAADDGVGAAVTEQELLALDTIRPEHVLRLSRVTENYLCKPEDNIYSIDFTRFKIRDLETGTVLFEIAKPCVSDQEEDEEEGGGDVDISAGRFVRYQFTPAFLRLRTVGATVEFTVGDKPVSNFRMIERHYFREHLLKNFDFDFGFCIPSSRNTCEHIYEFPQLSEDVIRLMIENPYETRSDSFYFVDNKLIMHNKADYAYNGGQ
UniProt O43852, residues 20-315: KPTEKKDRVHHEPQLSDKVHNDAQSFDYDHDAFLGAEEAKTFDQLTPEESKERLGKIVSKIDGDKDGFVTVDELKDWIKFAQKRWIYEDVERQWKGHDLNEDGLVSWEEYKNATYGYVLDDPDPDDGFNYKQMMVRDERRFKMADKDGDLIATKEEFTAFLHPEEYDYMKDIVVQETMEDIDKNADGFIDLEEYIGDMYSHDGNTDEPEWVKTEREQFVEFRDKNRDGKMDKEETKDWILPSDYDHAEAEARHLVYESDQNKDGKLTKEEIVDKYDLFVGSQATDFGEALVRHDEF

For assay [1], the target named is T1, PSKH1 with C-terminal 3C protease-cleavable FLAG tag (human) (UniProt P11801).
T1 sequence: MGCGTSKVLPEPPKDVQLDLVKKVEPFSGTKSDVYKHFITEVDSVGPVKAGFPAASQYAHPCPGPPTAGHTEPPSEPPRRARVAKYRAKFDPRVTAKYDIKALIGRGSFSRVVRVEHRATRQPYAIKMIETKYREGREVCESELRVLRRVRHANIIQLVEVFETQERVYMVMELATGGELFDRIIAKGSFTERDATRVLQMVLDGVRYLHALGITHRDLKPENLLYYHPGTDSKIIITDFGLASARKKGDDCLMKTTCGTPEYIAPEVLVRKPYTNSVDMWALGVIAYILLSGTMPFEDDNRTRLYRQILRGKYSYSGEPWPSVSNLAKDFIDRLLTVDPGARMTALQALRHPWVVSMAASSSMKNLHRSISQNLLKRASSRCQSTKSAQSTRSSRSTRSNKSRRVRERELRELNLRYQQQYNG
Put plainly: affinity purification with mass spectrometry; FLAG-IP of PSKH1 with C-terminal 3C-cleavable FLAG from HEK293T lysates on anti-FLAG resin, elution with 3C protease, trypsin, mass spectrometry.

For assay [2], the target named is T2, PSKH1 with C-terminal FLAG tag and TurboID fusion (human) (UniProt P11801).
T2 sequence: T1 sequence
The assay is described as follows: proximity labelling; TurboID: PSKH1-FLAG-TurboID induced with doxycycline (100 ng/mL) overnight in HEL cells, biotin 500 uM for 10 min, Streptavidin capture, trypsin, mass spectrometry; against uninduced cells; parallel experiments with ionomycin.

Results are given in words; binding and its absence hold for the method and conditions named. Binding seen in cells or lysates may run through a third protein. Here binding means that the protein was enriched with, or labelled near, the bait; the list need not be complete. Where a sequence is shown, tags or fusion partners need not be part of it.

For HSP90 (human (endogenous in HEK293T)), the binding entry in assay [1] is on record as “binds”.
On to “UNC119B, endogenous (from UniProt A6NIH7 1-251)”, for which the binding entry in assay [2] is recorded as “binds”.
As for Calumenin (from UniProt O43852 20-315), the binding result in assay [1] was “binds”.
